Not every detail of the peptide structures is certain; ends, links or a residue may be inferred. Where no end group is shown, it is not given here.
Experiments:
[1] = test system: Smad1/5 signaling; conditions: cultured rabbit IVD cells; cited from earlier work
[2] = test system: MMP-13; test: Western blot of MMP-13 in OA cartilage explants; type: cell-based, human; conditions: 21 days
[3] = test system: ADAMTS-4; test: ADAMTS-4 gene expression, real time PCR, NP cells; type: cell-based, bovine; conditions: 1 μg/mL, after 14 days
[4] = test system: nucleus pulposus region of bovine discs; test: Safranin O histology of proteoglycan distribution, bovine disc organ culture; type: cell-based; conditions: Link N 75 μg, MSCs 10^5 cells or both; 14 days
[5] = test system: disc cells; conditions: reference 93; cited from earlier work
[6] = test system: substance P; test: Substance P release from injured (punctured) bovine IVD; type: cell-based; conditions: Link N 10 μg/ml, 24 hours after puncture
[7] = test system: nucleus pulposus (NP) bovine cells; test: GAG release into culture media (DMMB), alginate beads; type: cell-based; conditions: 1 μg/ml, days 3-18, vs control
[8] = test system: human osteoarthritic (OA) cartilage explants; test: GAG content (DMMB assay) of OA cartilage explants; type: cell-based; conditions: 21 days
[9] = test system: Smad2; test: Smad2 activation, immunoblotting, NP cells; type: cell-based, bovine; conditions: 1 μg/ml
[10] = test system: ADAMTS-4; test: ADAMTS-4 gene expression, real time PCR, AF cells; type: cell-based, bovine; conditions: 1 μg/mL, compared to the controls
[11] = test system: neurotrophin (NGF and BDNF) and Substance P (TAC1); test: Cytokine-stimulated neurotrophin and Substance P gene expression in AF cells; type: cell-based; conditions: AF cells from grade 2 human discs, 24 hrs
[12] = test system: ADAMTS-5; test: ADAMTS-5 gene expression, real time PCR, NP cells; type: cell-based, bovine; conditions: 1 μg/mL, day 7, vs controls
[13] = test system: bovine discs with trypsin-induced degeneration; test: Proteoglycan (GAG, DMMB) concentration in bovine disc organ culture with trypsin-induced degeneration; type: cell-based; conditions: Link N 75 μg, MSCs 10^5 cells or both injected 4 days after trypsin; 14 days culture; vs degeneration control discs
Excerpt: (§1) The largest first 3-4 caudal discs were isolated from the tails of 24- to 30-month-old steers, as described previously (21,22). Briefly, the tails were dissected free of skin, muscles and ligaments, and pedicles for each segment were removed. The bone and the adjacent calcified part of the cartilaginous endplate were removed, so that the surface of the disc was soft and flexible without detectable calcified tissue. After the discs were rinsed in PBS supplemented with 1,000 U/mL penicillin, 1,000 μg/mL streptomycin and 0.25 μg/mL fungizone (GIBCO, Burlington, Canada), they were preconditioned for 3 days in sterile 80 mL specimen containers (STARPLEX Scientific, Etobicoke, Canada) containing 50 mL culture medium. (DMEM with 2 mM Glutamax and 25 mM Hepes, supplemented with 5% FBS, 100 U/mL penicillin, 100 μg/mL streptomycin, 50 μg/mL L-ascorbate). […] The number of MSCs used was based on a study by Liebscher et al (23), which measured the cell density of healthy human discs. […]
(§2) The remaining nucleus pulposus (NP) tissue was collected and the wet weight was recorded (21). […]
Sulfated glycosaminoglycans (GAGs) were quantified in tissue extracts by a modified dimethyl methylene blue (DMMB) dye-binding assay (25,26). […]

[14] = test system: type II collagen; test: Type II collagen by Western blot, bovine disc organ culture; type: cell-based; conditions: Link N 75 μg, MSCs 10^5 cells or both; 14 days
Excerpt: as §1, with “L-ascorbate). Degeneration was induced by a single injection of 100 μg trypsin (Sigma-Aldrich) dissolved in 75 μL PBS into the center of the disc using a 28 G½ needle (21) The needle was placed on top of the disc to measure the distance needed to reach the center and was then inserted to the same depth.” for “L-ascorbate).”
as §2

[15] = test system: aggrecan (AGG); test: Aggrecan (AGG) gene expression, real time PCR, NP cells; type: cell-based, bovine; conditions: 1 μg/mL, 1 week, relative to CTL
[16] = test system: Bone Morphogenetic Protein (BMP) Type 11 Receptor; conditions: reference 33; cited from earlier work
[17] = Stability of Link N in culture medium (mass spectrometry); type: physicochemical; conditions: culture medium without cells, 37° C., up to 48 h
[18] = test system: Smad2; test: Smad2 activation, immunoblotting, AF cells; type: cell-based, bovine; conditions: 1 μg/ml, up to three hours

**Q.** With “DHLSDNYTLDHDRAIH [Link N, DHLSDNYTLDHDRAIH]” as the sequence, how does the Smad1/5 signaling [1] read?
**A.** activates Smad1/5 signaling

**Q.** What about the “active form of MMP-13 in the presence of IL-1β” value ([2]; Link N 1 μg/ml + IL-1β 5 ng/ml, vs IL-1β alone) of the same sequence?
**A.** decrease in the quantities of the active form of MMP-13

**Q.** And the “active MMP-13” value ([2]; Link N 1 μg/ml alone, vs controls)?
**A.** significantly induced active MMP-13

**Q.** What about the ADAMTS-4 expression [3] of the same sequence?
**A.** down-regulate ADAMTS-4 expression

**Q.** And the “intensity and distribution of the Safranin O staining” value [4]?
**A.** even distribution throughout the NP region

**Q.** What about the “concentration that induces the maximal response at stimulating proteoglycan synthesis” value [5] of the same sequence?
**A.** 1 µg/mL

**Q.** What about the “Substance P release from injured bovine discs” value [6] of the same sequence?
**A.** reduces the Substance P release

**Q.** And the “GAG release into the culture medium” value [7]?
**A.** significantly higher than the control at all-time points

**Q.** What about the “GAG content of the explants normalized to the control, in the presence of IL-1β” value ([8]; Link N 1 μg/ml + IL-1β 5 ng/ml) of the same sequence?
**A.** about 30%

**Q.** What about the “GAG content of the explants normalized to the control” value ([8]; Link N 1 μg/ml) of the same sequence?
**A.** about 50%

**Q.** What about the Smad2 activation [9] of the same sequence?
**A.** no Smad2 activation was detected

**Q.** And the “mRNA ADAMTS-4 expression” value [10]?
**A.** increase in mRNA ADAMTS-4 expression was observed with both BLN and HLN incubations, although the differences were not significant

**Q.** And the “IL-1beta induced expression of neurotrophins (NGF, BDNF) and substance P (TAC1)” value ([11]; Link N 1 μg/ml + IL-1β 10 ng/ml)?
**A.** suppresses

**Q.** What about the “TNF alpha induced gene expression of neurotrophins (NGF, BDNF) and Substance P (TAC1)” value ([11]; Link N 1 μg/ml + TNFα 100 ng/ml) of the same sequence?
**A.** suppresses

**Q.** What about the ADAMTS-5 expression [12] of the same sequence?
**A.** upregulated

**Q.** And the “GAG content of the discs” value [13]?
**A.** significantly increased the GAG content

**Q.** And the “quantity of extractable type II collagen” value [14]?
**A.** increased to a similar level to that detected in non-degenerate control discs

**Q.** What about the AGG gene expression [15] of the same sequence?
**A.** larger and statistically significant

**Q.** What about the “interaction with BMP receptor” value [16] of the same sequence?
**A.** interacts with

**Q.** And the “loss of the 1922 Da Link N peptide in solution” value [17]?
**A.** No loss

**Q.** And the Smad2 activation [18]?
**A.** slightly increased Smad2 activation

Reference: patent US10202420B2, “Methods and compositions for treatment of cartilage and disc tissue pathologies” (THE ROYAL INSTITUTION FOR ADVANCEMENT OF LEARNING/MCGILL …, priority 2013, dated 2019)
